Patent US10006080B2, “High-selectivity contact activation inhibitor based on infestin-4” (OBSCHESTVO S OGRANICHENNOY OTVETSTVENNOSTYU …, priority 2013, dated 2018)
These are yes or no findings as the source states them, for the method shown. Some entries that bind do so weakly or less than the wild type. Sequences can lack the tags named with a protein.

T1: factor XIIa (UniProt P00748 20-615, limits assumed)
T1 construct: also called fXIIa
T1 sequence (looked up): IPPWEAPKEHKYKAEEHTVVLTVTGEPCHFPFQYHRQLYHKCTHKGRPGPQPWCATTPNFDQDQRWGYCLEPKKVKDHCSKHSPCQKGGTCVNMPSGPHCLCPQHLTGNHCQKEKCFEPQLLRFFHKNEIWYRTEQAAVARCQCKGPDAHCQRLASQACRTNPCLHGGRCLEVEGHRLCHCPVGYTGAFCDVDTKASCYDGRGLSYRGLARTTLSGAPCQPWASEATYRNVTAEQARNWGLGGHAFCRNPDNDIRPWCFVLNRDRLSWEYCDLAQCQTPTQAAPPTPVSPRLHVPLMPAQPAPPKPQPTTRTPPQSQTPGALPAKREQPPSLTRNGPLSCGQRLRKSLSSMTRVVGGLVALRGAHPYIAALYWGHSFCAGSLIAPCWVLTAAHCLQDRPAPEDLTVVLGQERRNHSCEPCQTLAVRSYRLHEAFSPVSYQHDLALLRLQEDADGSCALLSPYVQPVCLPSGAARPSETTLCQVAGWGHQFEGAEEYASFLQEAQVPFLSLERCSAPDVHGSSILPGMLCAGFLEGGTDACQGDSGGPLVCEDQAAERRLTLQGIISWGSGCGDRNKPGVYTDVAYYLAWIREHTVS


Biological target: T1, factor XIIa
Assay: chromogenic protease inhibition test in buffer

Binder | binding
native infestin-4, fusion protein with thioredoxin I E. coli containing polyhistidine clusters (other, It says MutB differs from it at positions 9, 12 and 14 only; also called Inf4; not shown: thioredoxin I of E. coli, fusion partner; polyhistidine clusters) EVRNPCACFRNYVPVCGSDGKTYGNPCMLNCAAQTKVPGLKLVHEGRCQRSNVEQF | binds
infestin-4 mutant MutB, fusion protein with thioredoxin I E. coli containing polyhistidine clusters (protein, not shown: large carriers; small tags and cut ends) EVRNPCACTRNFVAVCGSDGKTYGNPCMLNCAAQTKVPGLKLVHEGRCQRSNVEQF | binds
